The list shows only some results of the screen, not a fair sample: it is rich in T/C values a quarter to a half above the control, in often repeated tests (any T/C) and in doses without a T/C. Further doses and runs are listed elsewhere. T/C is the treated group as % of the vehicle group. Some doses have a count of surviving animals in place of a T/C: the source holds a T/C of zero for them, seemingly a mark for toxic or unscored doses. Some doses without a T/C left all or most animals alive at the check, yet need not have been tolerated: the source hardly ever lists a survival T/C far under the control, and the zero likely stands for such cases as well. Counts of survivors are from the toxicity check (mostly the fifth day) where no day follows; animals may have died later. Schedules are NCI's codes, read here as Q, the interval in days (D) or hours (H), X, the number of doses. Some schedules carry Z or #; the key to these is not given. Some entries hold several experiments; their values stand side by side, smallest first. For survival time, this PubChem deposit counts one and a half times the control or more as active, and values a quarter to a half above the control carry no call in these data; other NCI protocols may use other cut-offs. Some T/C values are followed by the survivors on the day toxicity was checked, most often the fifth; without a count, all were alive then. Brackets with × say how often a value occurs here.
Test system: L1210 leukemia ip in BDF1 mice, survival T/C
Experiment: NCI In Vivo Anticancer Drug Screen. Data for tumor model L1210 Leukemia (intraperitoneal) in B6D2F1 (BDF1) mice
Settings: higher T/C = longer survival
[1] = T/C endpoint: median survival time, dose: 50.0 mg/kg/injection, schedule: Q01DX009 (ip), vehicle: saline

For N=[N+]=CC(=O)OCC(N)C(=O)O (stereo unspecified), which T/C (T/C endpoint: mean survival time, dose: 64.0 mg/kg/injection, schedule: Q## X008 (ip), vehicle: saline) is on record?
The T/C was 138 % of control.

And the T/C (T/C endpoint: mean survival time, dose: 64.0 mg/kg/injection, schedule: Q## X024 (oral), vehicle: saline)?
Its T/C is 139 % of control.

What about the T/C (T/C endpoint: mean survival time, dose: 66.0 mg/kg/injection, schedule: Q01DX001 (ip), vehicle: saline) of the same compound?
The T/C was 134 % of control.

What about the T/C (T/C endpoint: mean survival time, dose: 80.0 mg/kg/injection, schedule: Q04DX002 (ip), vehicle: saline) of the same compound?
The T/C was 128 % of control.

And the survivor count (T/C endpoint: mean survival time, dose: 94.0 mg/kg/injection, schedule: Q## X004 (ip), vehicle: saline)?
Its survivor count is 6 of 10.

And the survivor count (T/C endpoint: mean survival time, dose: 98.0 mg/kg/injection, schedule: Q01DX001 (ip), vehicle: saline)?
Its survivor count is 4 of 9.

And the survivor count (T/C endpoint: mean survival time, dose: 100.0 mg/kg/injection, schedule: Q01DX001 (ip), vehicle: saline)?
Its survivor count is 2 of 6.

What about the survivor count (T/C endpoint: mean survival time, dose: 112.0 mg/kg/injection, schedule: Q01DX001 (ip), vehicle: saline) of the same compound?
The survivor count was 0 of 6.

And the survivor count (T/C endpoint: mean survival time, dose: 112.0 mg/kg/injection, schedule: Q07DX003 (ip), vehicle: saline)?
The survivor count was 0 of 6.

And the survivor count (T/C endpoint: mean survival time, dose: 128.0 mg/kg/injection, schedule: Q01DX001 (ip), vehicle: saline)?
Its survivor count is 2 of 10.

What about the survivor count (T/C endpoint: mean survival time, dose: 128.0 mg/kg/injection, schedule: Q01DX001 (oral), vehicle: saline) of the same compound?
The survivor count was 6 of 10.

What about the survivor count (T/C endpoint: mean survival time, dose: 128.0 mg/kg/injection, schedule: Q01DX006 (iv), vehicle: saline) of the same compound?
The survivor count was 0 of 6.

And the survivor count (T/C endpoint: mean survival time, dose: 128.0 mg/kg/injection, schedule: Q04DX003 (oral), vehicle: saline)?
Its survivor count is 0 of 8.

What about the survivor count (T/C endpoint: mean survival time, dose: 128.0 mg/kg/injection, schedule: Q## X002 (ip), vehicle: saline) of the same compound?
Its survivor count is 5 of 10.

And the survivor count (T/C endpoint: mean survival time, dose: 128.0 mg/kg/injection, schedule: Q## X003 (ip), vehicle: saline)?
Its survivor count is 6 of 10.

And the survivor count (T/C endpoint: mean survival time, dose: 128.0 mg/kg/injection, schedule: Q## X003 (oral), vehicle: saline)?
The survivor count was 4 of 10 and 5 of 10.

And the survivor count (T/C endpoint: mean survival time, dose: 135.0 mg/kg/injection, schedule: Q01DX001 (ip), vehicle: saline)?
Its survivor count is 3 of 10.

What about the survivor count (T/C endpoint: mean survival time, dose: 192.0 mg/kg/injection, schedule: Q03DX006 (ip), vehicle: saline) of the same compound?
Its survivor count is 0 of 6.

What about the survivor count (T/C endpoint: mean survival time, dose: 200.0 mg/kg/injection, schedule: Q01DX001 (ip), vehicle: saline) of the same compound?
The survivor count was 0 of 6.

And the survivor count (T/C endpoint: mean survival time, dose: 256.0 mg/kg/injection, schedule: Q01DX001 (oral), vehicle: saline)?
The survivor count was 4 of 10.

What about the survivor count (T/C endpoint: mean survival time, dose: 256.0 mg/kg/injection, schedule: Q01DX006 (iv), vehicle: saline) of the same compound?
Its survivor count is 0 of 6.

What about the survivor count (T/C endpoint: mean survival time, dose: 400.0 mg/kg/injection, schedule: Q01DX001 (ip), vehicle: saline) of the same compound?
The survivor count was 0 of 6.

What about the T/C (T/C endpoint: median survival time, dose: 0.12 mg/kg/injection, schedule: Q03HX024 (ip), vehicle: water) of the same compound?
Its T/C is 130 % of control [7 of 8 alive].

What about the T/C (T/C endpoint: median survival time, dose: 0.13 mg/kg/injection, schedule: Q03HX024 (ip), vehicle: water) of the same compound?
The T/C was 130 % of control.

And the T/C (T/C endpoint: median survival time, dose: 1.0 mg/kg/injection, schedule: Q03HX024 (ip), vehicle: water, evaluated on day 5)?
Its T/C is 166 and 182 % of control.

What about the T/C (T/C endpoint: median survival time, dose: 1.0 mg/kg/injection, schedule: Q03HX024 (ip), vehicle: water, evaluated on day 30) of the same compound?
The T/C was 182 % of control.

What about the T/C (T/C endpoint: median survival time, dose: 1.0 mg/kg/injection, schedule: Q03HX024 (ip), vehicle: water, evaluated on day 33) of the same compound?
Its T/C is 166 % of control.

What about the T/C (T/C endpoint: median survival time, dose: 2.0 mg/kg/injection, schedule: Q03HX024 (ip), vehicle: water, evaluated on day 5) of the same compound?
The T/C was 159 and 171 % of control.

And the T/C (T/C endpoint: median survival time, dose: 2.0 mg/kg/injection, schedule: Q03HX024 (ip), vehicle: water, evaluated on day 30)?
Its T/C is 159 % of control.

What about the T/C (T/C endpoint: median survival time, dose: 2.0 mg/kg/injection, schedule: Q03HX024 (ip), vehicle: water, evaluated on day 33) of the same compound?
The T/C was 171 % of control.

And the T/C (T/C endpoint: median survival time, dose: 4.0 mg/kg/injection, schedule: Q01DX009 (ip), vehicle: water)?
Its T/C is 130 % of control.

What about the T/C (T/C endpoint: median survival time, dose: 4.0 mg/kg/injection, schedule: Q03HX024 (ip), vehicle: water, evaluated on day 5) of the same compound?
Its T/C is 166 and 168 % of control.

And the T/C (T/C endpoint: median survival time, dose: 4.0 mg/kg/injection, schedule: Q03HX024 (ip), vehicle: water, evaluated on day 30)?
The T/C was 166 % of control.

And the T/C (T/C endpoint: median survival time, dose: 4.0 mg/kg/injection, schedule: Q03HX024 (ip), vehicle: water, evaluated on day 33)?
The T/C was 168 % of control [6 of 8 alive].

And the T/C (T/C endpoint: median survival time, dose: 6.25 mg/kg/injection, schedule: Q01DX009 (ip), vehicle: saline)?
The T/C was 131, 135 [5 of 6 alive], 137, 140 % of control.

And the T/C (T/C endpoint: median survival time, dose: 8.0 mg/kg/injection, schedule: Q01DX009 (ip), vehicle: water)?
The T/C was 140 % of control.

And the T/C (T/C endpoint: median survival time, dose: 8.0 mg/kg/injection, schedule: Q03HX024 (ip), vehicle: water, evaluated on day 5)?
Its T/C is 84 and 130 % of control.

What about the T/C (T/C endpoint: median survival time, dose: 8.0 mg/kg/injection, schedule: Q03HX024 (ip), vehicle: water, evaluated on day 33) of the same compound?
The T/C was 130 % of control.

What about the survivor count (T/C endpoint: median survival time, dose: 8.0 mg/kg/injection, schedule: Q03HX024 (ip), vehicle: water) of the same compound?
Its survivor count is 7 of 8.

What about the T/C (T/C endpoint: median survival time, dose: 12.5 mg/kg/injection, schedule: Q01DX009 (ip), vehicle: saline) of the same compound?
Its T/C is 150 (2×), 156, 165 % of control.

And the T/C (T/C endpoint: median survival time, dose: 16.0 mg/kg/injection, schedule: Q01DX009 (ip), vehicle: water)?
Its T/C is 135 % of control.

What about the survivor count (T/C endpoint: median survival time, dose: 16.0 mg/kg/injection, schedule: Q03HX024 (ip), vehicle: water) of the same compound?
Its survivor count is 5 of 8.

And the T/C (T/C endpoint: median survival time, dose: 25.0 mg/kg/injection, schedule: Q01DX009 (ip), vehicle: saline)?
The T/C was 90, 100, 137 % of control (2×).

And the survivor count (T/C endpoint: median survival time, dose: 32.0 mg/kg/injection, schedule: Q03HX024 (ip), vehicle: water)?
The survivor count was 0 of 8.

What about the T/C [1] of the same compound?
The T/C was 100 % of control.

And the survivor count [1]?
Its survivor count is 2 of 6, 5 of 6, 6 of 6.

Reference: PubChem BioAssay AID248 (DTP/NCI, 2004)
